Measured values taken from PubChem BioAssay AID2417 (National Center for Advancing Translational Sciences (NCATS), 2010).
Screen size: about 140,000 compounds; about 4,300 (3.1%) were called active. The inconclusive results got no clear call from the source; some entries with a clear call stand among them for comparison.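 Rule for the calls: active = readout at or below -70, meaning at least 70% loss of cells showing the perinucleolar compartment, a nuclear body marking cancer cells; inconclusive = readout between -30 and a set limit; inactive = the rest.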

Experiment: High Content Assay for Compounds that inhibit the Assembly of the Perinucleolar Compartment;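 note: plate controls were DMSO wells for no effect and camptothecin positive control wells for full effect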
Settings: PC3M PTB-GFP, PNC prevalence imaging, 16 h; at 10 µM; stronger effect = lower value
Outline: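 Compounds are pinned in duplicate onto adhered PC3M cells stably expressing GFP-tagged PTB and incubated 16 h at 37 C. Cells are then fixed, nuclei stained with Hoechst, and PNC-positive cells counted.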

Question: Which activity change (PNC), negative = inhibition does the source give for `CN(C1CCCCC1)S(=O)(=O)c1ccccc1` here?
Answer: inconclusive: -57.2%

Question: For `CCCCn1c(SCC(=O)NCc2ccco2)nc2ccccc2c1=O`, which activity change (PNC), negative = inhibition is on record?
Answer: inactive: -8.23%

Question: Which activity change (PNC), negative = inhibition does the source give for `Cc1nnc2n1NC(c1ccc(Cl)cc1)C(C(=O)N1CCC(C)CC1)S2` (centres undefined) here?
Answer: active: -112%

Question: Which activity change (PNC), negative = inhibition does the source give for `Cc1ccccc1OCC(=O)NCC1CCCO1` (centres undefined) here?
Answer: inconclusive: -61.9%

Question: With `COc1nc(-c2ccccc2)ccc1-c1noc(-c2ccco2)n1` as the molecule, how does the activity change (PNC), negative = inhibition read?
Answer: inactive: -1.69%

Question: With `COc1ccc(OC)c(NC(=O)C(CC(C)C)NC(=O)C2CCCCC2)c1` (centres undefined) as the molecule, how does the activity change (PNC), negative = inhibition read?
Answer: inconclusive: -75.6%

Question: Which activity change (PNC), negative = inhibition does the source give for `COc1cc(/C=N/Nc2nnc3c(n2)[nH]c2ccccc23)ccc1O` here?
Answer: inactive: -15.2%

Question: With `COc1cc2c(cc1OC)C1=C(C#N)CCC(=O)N1CC2` as the molecule, how does the activity change (PNC), negative = inhibition read?
Answer: active: -100%

Question: With `O=C(c1sc2ccccc2c1Cl)N1CCN(c2ccc(F)cc2)CC1` as the molecule, how does the activity change (PNC), negative = inhibition read?
Answer: inconclusive: -63.3%

Question: With `CCOC(=O)c1cnc(SC2CC(=O)N(c3ccc(C)cc3)C2=O)nc1N` (centres undefined) as the molecule, how does the activity change (PNC), negative = inhibition read?
Answer: inactive: -2.3%

Question: With `COc1cc(C(=O)Nc2ccc(C(C)=O)cc2)c(Br)c(OC)c1OC` as the molecule, how does the activity change (PNC), negative = inhibition read?
Answer: inconclusive: -35.7%

Question: Which activity change (PNC), negative = inhibition does the source give for `CCN1C(=O)/C(=C/C=C2\C=CN(CC)c3ccccc32)SC1=S` here?
Answer: inactive: -4.35%

Question: Which activity change (PNC), negative = inhibition does the source give for `CN=C(C)c1c(O)c2ccccc2oc1=O` here?
Answer: inactive: 12.1%

Question: For `CCc1nnc(NC(=O)c2ccc(NS(=O)(=O)c3ccccc3)cc2)s1`, which activity change (PNC), negative = inhibition is on record?
Answer: inconclusive: -71.2%

Question: For `O=C(O)CC1=C(O)C(=O)N(c2ccccc2)C1c1ccccc1` (centres undefined), which activity change (PNC), negative = inhibition is on record?
Answer: inactive: -18.3%

Question: With `CCCCCSc1nc2c(cnn2-c2ccccc2)c(=O)[nH]1` as the molecule, how does the activity change (PNC), negative = inhibition read?
Answer: inconclusive: -69.1%

Question: With `COc1ccc(C2=Nc3cccc4cccc(c34)N2)cc1` as the molecule, how does the activity change (PNC), negative = inhibition read?
Answer: inactive: 5.61%

Question: For `CC(NC(=O)C1CC2CCCC(C1)C2=O)c1ccccc1` (centres undefined), which activity change (PNC), negative = inhibition is on record?
Answer: inactive: -18.4%

Question: For `Cc1nn(C2CCCCC2)c(N)c1-c1ccccc1`, which activity change (PNC), negative = inhibition is on record?
Answer: inactive: 31.3%

Question: Which activity change (PNC), negative = inhibition does the source give for `CC1(C)CC(=O)C2=C(C1)N(CC1CCCO1)C(=O)C2(NC(=O)c1cccnc1)C(F)(F)F` (centres undefined) here?
Answer: inconclusive: -30.8%

Question: With `COC(=O)c1sc2nc(SCc3cccc(F)c3)n(N)c(=O)c2c1C` as the molecule, how does the activity change (PNC), negative = inhibition read?
Answer: inconclusive: -32.1%

Question: For `Cc1cc(C(F)(F)F)nc(SCC(=O)NC2CC3CCC2C3)n1` (centres undefined), which activity change (PNC), negative = inhibition is on record?
Answer: inactive: 9.02%

Question: For `O=C(NN1C(=O)c2ccccc2C1=O)C1CC2CCC1C2` (centres undefined), which activity change (PNC), negative = inhibition is on record?
Answer: inconclusive: -40.9%

Question: With `CCn1c(Cn2nnc(-c3ccccc3)n2)nnc1SCC(=O)Nc1ccc(N(C)C)cc1` as the molecule, how does the activity change (PNC), negative = inhibition read?
Answer: inconclusive: -67.3%

Question: Which activity change (PNC), negative = inhibition does the source give for `COc1ccc(/C=C2/N=C(c3cccs3)OC2=O)cc1OC(C)C` here?
Answer: inconclusive: -43%

Question: With `Fc1ccc(OCCCCCCN2CCCC2)cc1` as the molecule, how does the activity change (PNC), negative = inhibition read?
Answer: inconclusive: -33.2%

Question: Which activity change (PNC), negative = inhibition does the source give for `COc1cccc(OCCCCN2CCCCC2)c1` here?
Answer: inconclusive: -41%

Question: For `Cn1c(=O)c2c(nc(N3CCN(Cc4ccccc4)CC3)n2CCSc2ncccn2)n(C)c1=O`, which activity change (PNC), negative = inhibition is on record?
Answer: inconclusive: -51.7%

Question: Which activity change (PNC), negative = inhibition does the source give for `CC(C)Nc1nc(NC(C)C)nc(N(C)n2cnnc2)n1` here?
Answer: inconclusive: -31.7%

Question: For `CCOC(=O)CSc1nc2ccccc2c(=O)n1Cc1ccco1`, which activity change (PNC), negative = inhibition is on record?
Answer: inactive: -3.66%

Question: With `N#CC(C#N)=C1C=C2C=C(N3CCCCC3)CCC2CC1` (centres undefined) as the molecule, how does the activity change (PNC), negative = inhibition read?
Answer: active: -118%

Question: With `Cc1ccc(NC(=O)Cn2cccc2C2=NC(c3ccccc3)CO2)c(C)c1` (centres undefined) as the molecule, how does the activity change (PNC), negative = inhibition read?
Answer: inactive: 17.1%

Question: Which activity change (PNC), negative = inhibition does the source give for `CC(C(=O)Nc1ccccn1)N1C(=O)C2C3C=CC(C3)C2C1=O` (centres undefined) here?
Answer: inactive: -7.79%

Question: With `O=C(Nc1nnc(C2CC2)s1)c1cccc(S(=O)(=O)N2CCc3ccccc32)c1` as the molecule, how does the activity change (PNC), negative = inhibition read?
Answer: inconclusive: -38.2%

Question: For `Cc1ccc2nc(NC(=O)Cn3nc(C)c([N+](=O)[O-])c3C)sc2c1`, which activity change (PNC), negative = inhibition is on record?
Answer: inconclusive: -53.2%

Question: For `O=C(NNC(=O)c1ccc(Cl)cc1Cl)c1ccncc1`, which activity change (PNC), negative = inhibition is on record?
Answer: inconclusive: -53.5%

Question: For `O=C1c2cccc3cccc(c23)C(=O)N1OS(=O)(=O)c1ccc(Cl)cc1`, which activity change (PNC), negative = inhibition is on record?
Answer: inactive: 40%

Question: Which activity change (PNC), negative = inhibition does the source give for `CC(=O)OC(Cn1nc(C)cc1C)c1ccccc1` (centres undefined) here?
Answer: inconclusive: -44.2%

Question: Which activity change (PNC), negative = inhibition does the source give for `COc1cccc(/C=N/NC(=O)c2cc3c(OC)cccc3[nH]2)c1OC` here?
Answer: inconclusive: -48.5%

Question: Which activity change (PNC), negative = inhibition does the source give for `O=C(C1=C(O)C(=O)N(c2ncccn2)C1c1ccc(Cl)cc1)c1ccco1` (centres undefined) here?
Answer: inactive: 54.1%

Question: Which activity change (PNC), negative = inhibition does the source give for `O=C(NC1CCCCC1)c1ccc(Cl)c(NC(=O)c2ccccc2F)c1` here?
Answer: inconclusive: -38.1%

Question: Which activity change (PNC), negative = inhibition does the source give for `COc1ccc(N/C(C)=C2/C(=O)C(=O)N(CCO)C2c2ccc([N+](=O)[O-])cc2)cc1` (centres undefined) here?
Answer: inconclusive: -50%

Question: For `O=C(/C=C/c1ccco1)N/C(=C\c1ccccc1)C(=O)NCCc1nc2ccccc2[nH]1`, which activity change (PNC), negative = inhibition is on record?
Answer: inconclusive: -47.9%

Question: For `c1cnc(N2CCSCC2)nc1`, which activity change (PNC), negative = inhibition is on record?
Answer: active: -91.3%

Question: Which activity change (PNC), negative = inhibition does the source give for `Cn1c(=O)c2ncn(CC(=O)NCCOc3ccccc3)c2n(C)c1=O` here?
Answer: inactive: 25.7%

Question: With `Cc1ccc(CN2C(=O)C3CCCN3c3ccc(C#N)cc32)cc1` (centres undefined) as the molecule, how does the activity change (PNC), negative = inhibition read?
Answer: inactive: 17%

Question: Which activity change (PNC), negative = inhibition does the source give for `COC(=O)c1ccc(CSc2nc3c(c(=O)n2-c2ccc(C)cc2)SCC3)o1` here?
Answer: inconclusive: -37.9%

Question: With `O=C(NCc1ccc2c(c1)OCO2)c1ccc(C2SCC(=O)N2Cc2ccco2)cc1` (centres undefined) as the molecule, how does the activity change (PNC), negative = inhibition read?
Answer: inconclusive: -55.1%

Question: Which activity change (PNC), negative = inhibition does the source give for `CCOC(=O)Nc1sc(C)nc1-c1ccccc1` here?
Answer: inconclusive: -38.8%

Question: For `CCN(CC)S(=O)(=O)c1cccc(C(=O)NCC2CCCO2)c1` (centres undefined), which activity change (PNC), negative = inhibition is on record?
Answer: inconclusive: -56.7%

Question: For `CCOc1ccccc1OCC(=O)Nc1nnc(C)s1`, which activity change (PNC), negative = inhibition is on record?
Answer: inconclusive: -65.9%

Question: Which activity change (PNC), negative = inhibition does the source give for `CC(=O)Nc1nc2c(c3c1c(=O)oc1ccccc13)CCCC2` here?
Answer: inconclusive: -45.9%

Question: With `COc1ccc(C2C=C(c3ccccc3)Nc3nc(NC(C)=O)nn32)cc1` (centres undefined) as the molecule, how does the activity change (PNC), negative = inhibition read?
Answer: inconclusive: -35.9%

Question: With `Cn1c(N2CCN(C(=O)NCc3ccccc3)CC2)nc2ccccc21` as the molecule, how does the activity change (PNC), negative = inhibition read?
Answer: inconclusive: -65.9%

Question: With `O=C(Cn1c(=O)sc2ccccc21)NCc1ccccn1` as the molecule, how does the activity change (PNC), negative = inhibition read?
Answer: inconclusive: -34%

Question: Which activity change (PNC), negative = inhibition does the source give for `C/C(=N\NS(=O)(=O)c1ccc(Cl)cc1)c1ccc(NC(=O)c2ccco2)cc1` here?
Answer: inconclusive: -32.9%

Question: With `COc1cccc(NC(=O)Nc2ccc(Cc3ccncc3)cc2)c1` as the molecule, how does the activity change (PNC), negative = inhibition read?
Answer: inconclusive: -37.1%

Question: Which activity change (PNC), negative = inhibition does the source give for `Cc1nc2ccccn2c1C(=O)N=Nc1c(O)n(CCC(C)C)c2ccccc12` here?
Answer: inconclusive: -33.5%

Question: Which activity change (PNC), negative = inhibition does the source give for `CCCCN1Cc2cc(C(=O)c3cc(F)ccc3O)cnc2NC1=O` here?
Answer: inactive: -3.32%
